Measured values: PubChem BioAssay AID504444 (National Center for Advancing Translational Sciences (NCATS), 2011)
Screen size: about 360,000 compounds; about 7,500 (2.1%) were called active. The inconclusive results got no clear call from the source; some entries with a clear call stand among them for comparison. The call rests on the fitted dose curve; in most records, active means well fitted inhibition curve with a large enough effect; inconclusive means small, poorly fitted or top-dose-only effect, or effect the other way; inactive means flat fitted curve, though single readings scatter. Potencies beside an inconclusive call are fits to weak or partial responses and may not hold up.

Assay: Nrf2 qHTS screen for inhibitors; further: nearly all actives have a fitted effect of over 60% in size
Conditions: A549 ARE-Fluc reporter, luciferase luminescence, 18-24 h; series mostly up to 46 µM
Procedure, shortened: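 A549 ARE_Fluc cells (5000/well, 5% FBS OPTI-MEM) pre-incubated 2 h, then treated with compounds 18-24 h at 37C/5% CO2 in concentration-response. CellTiter-Fluor viability read first; BugLite luciferase luminescence after 15 min at room temperature gives Nrf2 activity.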
Potency means the concentration at half of the fitted maximal effect.

Row | Structure (SMILES) | Potency
1 | COc1ccc(N2CCN(C(=O)C(Cc3ccccc3)n3cccc3)CC2)cc1 (centres undefined) | inactive
2 | CCC(C)NC(=O)c1ccc(-n2c(-c3ccccc3)cc3c2CCCC3)cc1 (centres undefined) | active: 18.4 µM
3 | COC(=O)c1cc(NC(=O)Cn2nc(C)n3cccc3c2=O)cc(C(=O)OC)c1 | inconclusive: 23.1 µM [activator, single point]
4 | Cc1ccc(-n2cc(CNC(C)c3cnn(C)c3C)c(-c3ccc(F)cc3)n2)cc1 (centres undefined) | inactive
5 | CC(C)c1cc(C(=O)Nc2cc(Cl)ccc2O)no1 | inconclusive: 29.1 µM [activator, single point]
6 | CCN(CC(=O)Nc1ccccc1OC)C(=O)CSCc1ccc(C)cc1 | inconclusive: 1.84 µM [activator, partial curve]
7 | CCOC(=O)[C@@H]1[C@H]2COc3ccc(Br)cc3[C@H]2N2C(=O)N(c3ccc(Br)cc3)C(=O)[C@]12C | inactive
8 | Cc1ccc(S(=O)(=O)N2CCCCC2)cc1NC(=O)CCNC(=O)c1ccc([N+](=O)[O-])cc1 | inconclusive: 20.6 µM [falling, single point]
9 | S=c1[nH]nc(-c2ccccc2)n1/N=C/c1ccc(-c2ccccc2Cl)o1 | inactive
10 | CCn1c(Nc2ccccc2Cl)nc2ccccc21 | inconclusive: 29.1 µM [activator, single point]
11 | Cc1ccn(-c2cccc(-n3ccc(C)n3)n2)n1 | inconclusive: 14.6 µM [activator, partial curve]
12 | CSc1cccc(CN2CCC(Oc3cccc(C(=O)N4CCCC4)c3)CC2)c1 | inconclusive: 18.4 µM [falling, single point]
13 | COc1ccc(/C=C/C(=O)Nc2nc(C)cc(C)n2)cc1OC | inactive
14 | COc1ccccc1C(=O)NCC1CCN(c2ccc(S(=O)(=O)N3CCOCC3)cc2)CC1 | active: 23.1 µM
15 | COc1cc(/C=C(/C#N)C(=O)NC(C)c2ccccc2)cc(OC)c1O (centres undefined) | inconclusive: 0.731 µM [activator, full curve, poor fit]
16 | CC(C)CC1NC(=O)N(CC(=O)Nc2ccc(OC(F)F)cc2)C1=O (centres undefined) | inconclusive: 6.51 µM [falling, single point]
17 | CCCCCCNC(=O)c1cn(CC)c2cc(N3CCN(C)CC3)c(F)cc2c1=O | inactive
18 | COc1ccc2c(c1)-c1nc(NC(=O)c3cc(Cl)ccc3OC)sc1CC2 | inconclusive: 5.17 µM [falling, partial curve, poor fit]
19 | COc1ccccc1CNC(=O)CCn1c(=O)c2ccccc2n(CC(=O)Nc2ccc(C)cc2C)c1=O | inactive
20 | CCN1/C(=C/c2ccc3cccc(C)c3[n+]2CC)Sc2ccccc21 | active: 2.59 µM
21 | O=C(CCSCCc1ccncc1)NCCCN1CCOCC1 | inconclusive: 23.1 µM [activator, single point]
22 | O=C1CSC(c2ccccc2)N1c1nc(-c2ccc(Cl)cc2Cl)cs1 (centres undefined) | inconclusive: 7.31 µM [activator, single point]
23 | C=CCN1C(=O)[C@@H]2Cc3c([nH]c4ccccc34)C(c3cc(OC)c(OC)c(OC)c3)N2C1=S (some centres undefined) | inconclusive: 0.103 µM [falling, full curve, poor fit]

A few values from the list:
Potency with CC(C)c1cc(C(=O)Nc2cc(Cl)ccc2O)no1 is entered as inconclusive: 29.1 µM [activator, single point]
Potency with COc1ccccc1C(=O)NCC1CCN(c2ccc(S(=O)(=O)N3CCOCC3)cc2)CC1 is entered as active: 23.1 µM

The results go on.

Row | Structure (SMILES) | Potency
24 | CCOC(=O)C1(Cc2cccc(OC)c2)CCN(Cc2cccn2-c2nccs2)CC1 | inconclusive: 16.4 µM [activator, single point]
25 | O=C(c1cc(-c2ccc(Br)cc2)on1)N1CCCCCC1 | inconclusive: 7.31 µM [activator, partial curve]
26 | CC(C)OCCCNC(=O)Cn1nc(-c2ccccc2)ccc1=O | inconclusive: 13 µM [falling, single point]
27 | COc1ccc(/C=N/NC(=O)c2cccnc2)cc1CN1CCN(c2ccc(F)cc2)CC1 | inactive
28 | COc1ccc(-c2cc(C(F)(F)F)n3nc(C(=O)NCc4ccco4)c(Cl)c3n2)cc1 | inconclusive: 29.1 µM [falling, partial curve, poor fit]
29 | O=C(Nc1nc2ccccc2s1)c1ccc2c(c1)OCO2 | inconclusive: 0.651 µM [activator, full curve]
30 | O=C(Nc1ccc(CN2CCOCC2)cc1)c1ccc(-c2cc(Cl)ccc2Cl)o1 | inconclusive: 29.1 µM [falling, single point]
31 | O=C(Nc1ccc(OC(F)F)cc1)Nc1cccc(C(F)(F)F)c1 | active: 20.6 µM
32 | Cc1ccc(CN2CC(C(=O)Nc3ccc(C)c(S(=O)(=O)N4CCCCC4)c3)CC2=O)cc1 (centres undefined) | active: 20.6 µM
33 | Cc1ccc(-c2nn(-c3ccccc3)cc2/C=N/O)cc1 | inconclusive: 29.1 µM [activator, single point]
34 | CC(C)(C)C(=O)Nc1ccc(/C=C/C(=O)c2ccco2)cc1 | inconclusive: 3.66 µM [activator, full curve]
35 | COc1ccccc1C(=O)NNC(=S)NC(=O)c1cc(OC)c(OC)c(OC)c1 | inconclusive: 29.1 µM [falling, single point]
36 | CCn1c(SCC(=O)Nc2ccc3c(c2)oc2ccccc23)nnc1-c1ccc(N)cc1 | inconclusive: 16.4 µM [falling, single point]
37 | O=C(c1ccc(CS(=O)Cc2ccccc2Cl)o1)N1CCN(c2ccccn2)CC1 (centres undefined) | inactive
38 | COCCCn1c(C)cc(C(=O)COC(=O)C23CC4CC(CC(O)(C4)C2)C3)c1C | inconclusive: 16.4 µM [activator, partial curve]
39 | O=[N+]([O-])c1ccc(N2CCN(C(=S)Nc3ccc(F)cc3F)CC2)cc1 | active: 23.1 µM
40 | Nc1c(C(=O)Nc2ccccc2)sc2nc3c(c(-c4ccco4)c12)CCC3 | inconclusive: 14.6 µM [activator, partial curve]
41 | CC(=O)Oc1c(S(=O)(=O)c2ccc(C)cc2)c(C)nn1C(C)(C)C | inconclusive: 25.9 µM [falling, partial curve, poor fit]
42 | Cc1nc(CC(=O)Nc2cccc(C)c2C)cs1 | inconclusive: 5.8 µM [activator, partial curve, poor fit]
43 | CC(C)CSC1=NSC2=NC(=O)/C(=C\c3cccs3)C(=N)N12 | inactive
44 | CN(CC(=O)Nc1ccc(F)c(F)c1F)C(=O)c1ccc(-n2cncn2)cc1 | inactive
45 | CCOC(=O)c1c(C)[nH]c(C(=O)C(C)OC(=O)c2ccc(NC(=O)CC#N)cc2)c1C (centres undefined) | inconclusive: 29.1 µM [falling, single point]
46 | O=C(CN(Cc1ccc(F)cc1)C(=O)c1csnn1)NCc1ccccc1 | inactive

Row | Structure (SMILES) | Potency
47 | Cc1ccc(S(=O)(=O)/C(=C/Cl)NC(=O)c2ccccc2)cc1 | active: 18.4 µM
48 | CCOCCCNC(=O)c1c[nH]c2ccc(S(=O)(=O)Nc3cccc(Cl)c3C)cc2c1=O | inconclusive: 29.1 µM [falling, single point]
49 | O=C(N/N=C/c1ccncc1)c1cc2c(ccc3ccccc32)o1 | inconclusive: 1.64 µM [falling, full curve, poor fit]
50 | COc1ccc(C(=O)NCCC2=CCCCC2)cc1 | inconclusive: 3.26 µM [activator, partial curve, poor fit]
51 | Cn1c(=O)oc2cc(S(=O)(=O)N3CCCC(C(=O)N4CCN(c5ccccc5F)CC4)C3)ccc21 (centres undefined) | inconclusive: 13 µM [falling, partial curve]
52 | Cc1ccc(C)c(N(C)C(=O)c2cc3c(=O)[nH]c4ccc(C)cc4c3s2)c1 | inactive
53 | Cc1cc(C)nc(N/C(=N\S(=O)(=O)Cc2ccccc2)Nc2ccc(F)c(Cl)c2)n1 | inconclusive: 29.1 µM [falling, single point]
54 | O=C(C1COc2ccccc2O1)N1CCc2ccccc21 (centres undefined) | inconclusive: 2.59 µM [activator, full curve]
55 | COc1ccc(NC(=O)c2ccccc2NS(=O)(=O)c2ccc(C)cc2)c([N+](=O)[O-])c1 | inconclusive: 29.1 µM [falling, single point]
56 | CC1=Nc2cc(C(=O)NC3CCCC3)ccc2Sc2ccc(Br)cc21 | inconclusive: 29.1 µM [falling, single point]
57 | Cc1ccc(SCC(=O)NC(C)c2ccccc2)cc1 (centres undefined) | inactive
58 | Cc1ccccc1NC(=O)c1sc2nc(N3CCOCC3)c3c(c2c1N)CCCC3 | inactive
59 | CCOC(=O)c1cccc(NC(=O)CCn2nc(C)c3c(C)n(-c4ccccc4)nc3c2=O)c1 | inactive
60 | CCc1c(C)nc2ccc(Br)cc2c1SCCC#N | inconclusive: 11.6 µM [falling, partial curve, poor fit]
61 | COc1ccc(C(=O)NC(=S)N2CCN(c3ccccc3O)CC2)cc1 | inactive
62 | NS(=O)(=O)c1ccc(-c2ccc(/C=C3\SC(=O)NC3=O)o2)cc1 | inconclusive: 23.1 µM [falling, partial curve, poor fit]
63 | CC1(C)Cc2nc3oc4c(=S)nc[nH]c4c3cc2CO1 | inactive
64 | O=C(CCCN1C(=O)NC2(CCCC2)C1=O)Nc1ccc(Cl)c(S(=O)(=O)N2CCOCC2)c1 | inactive
65 | O=C(NN1C(=O)/C(=C/C=C/c2ccccc2)SC1=S)c1ccncc1 | inconclusive: 29.1 µM [activator, single point]
66 | COc1ccc(CCNC(=O)Nc2ccc3c(c2)OCO3)cc1OC | inactive
67 | O=C(Nc1nnc(-c2ccc3c(c2)OCCO3)o1)c1ccc(Cc2ccccc2)cc1 | inconclusive: 25.9 µM [falling, single point]
68 | C[C@@H]1CC[C@H](O)/C=C/C(=O)O[C@H](C)CC[C@H](O)/C=C/C(=O)O1 | inconclusive: 32.6 µM [falling, single point]
69 | O=S(=O)(Nc1ccc(Cc2ccncc2)cc1)c1ccc(Cl)s1 | active: 18.4 µM
